Here are results for one molecule from publication PMC12680756, “Reflectometric-based sensor arrays for the screening of kinase-inhibitor interactions and kinetic determination” (Analytical and Bioanalytical Chemistry, 2025).

The experiment has as its system protein mix (PKA). The settings on record: constant protein mix concentration titrated with inhibitor in pre-incubation; data not shown.

For `CN[C@@H]1C[C@H]2O[C@@](C)([C@@H]1OC)n1c3ccccc3c3c4c(c5c6ccccc6n2c5c31)C(=O)NC4` [STP, Staurosporine], the “binding inhibition, change in optical thickness” value is given as “concentration-dependent change in optical thickness”.
